In publication PMC2824034, “The indispensable N-terminal half of eIF3j/HCR1 co-operates with its structurally conserved binding partner eIF3b/PRT1-RRM and eIF1A in stringent AUG selection” (Journal of molecular biology, 2010) one finds binding data, which are given here for three substances.

Sequences of proteins named here, by UniProt entry; tags and fusion partners are left off. A change or cut given only in a name is not applied to a line headed by its entry. Residues count along the entry.
UniProt P06103: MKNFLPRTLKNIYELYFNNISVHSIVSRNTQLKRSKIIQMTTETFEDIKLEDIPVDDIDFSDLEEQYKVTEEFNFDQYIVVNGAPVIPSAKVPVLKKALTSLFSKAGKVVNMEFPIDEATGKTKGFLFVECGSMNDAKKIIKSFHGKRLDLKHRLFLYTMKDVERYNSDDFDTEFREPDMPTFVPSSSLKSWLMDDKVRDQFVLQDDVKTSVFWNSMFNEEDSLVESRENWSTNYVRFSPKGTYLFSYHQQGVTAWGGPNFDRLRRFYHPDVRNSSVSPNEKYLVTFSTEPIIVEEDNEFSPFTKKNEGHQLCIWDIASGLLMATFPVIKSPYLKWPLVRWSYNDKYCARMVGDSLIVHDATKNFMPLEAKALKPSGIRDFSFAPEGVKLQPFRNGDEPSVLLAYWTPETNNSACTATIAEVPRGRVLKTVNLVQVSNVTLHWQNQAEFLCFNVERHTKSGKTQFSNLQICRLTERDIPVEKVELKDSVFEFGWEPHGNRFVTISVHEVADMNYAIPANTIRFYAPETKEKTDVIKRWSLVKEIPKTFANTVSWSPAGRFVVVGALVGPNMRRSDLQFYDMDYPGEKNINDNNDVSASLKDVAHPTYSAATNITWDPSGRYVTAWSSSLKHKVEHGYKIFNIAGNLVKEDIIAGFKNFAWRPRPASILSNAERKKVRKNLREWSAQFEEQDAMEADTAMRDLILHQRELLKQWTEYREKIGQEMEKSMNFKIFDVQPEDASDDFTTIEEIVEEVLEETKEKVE
UniProt Q05775: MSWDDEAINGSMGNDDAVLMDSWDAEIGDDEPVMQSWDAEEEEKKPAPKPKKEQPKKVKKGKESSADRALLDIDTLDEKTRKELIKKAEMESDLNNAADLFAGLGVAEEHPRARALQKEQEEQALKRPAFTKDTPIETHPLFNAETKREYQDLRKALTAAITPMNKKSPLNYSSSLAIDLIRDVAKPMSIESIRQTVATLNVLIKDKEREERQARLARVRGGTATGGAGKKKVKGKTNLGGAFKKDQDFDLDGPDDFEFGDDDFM
GST-j/hcr1-NTD [1-135]: residues 1-135 of Q05775
GST-j/hcr1-CTD [136-265]: residues 136-265 of Q05775
UniProt P38431: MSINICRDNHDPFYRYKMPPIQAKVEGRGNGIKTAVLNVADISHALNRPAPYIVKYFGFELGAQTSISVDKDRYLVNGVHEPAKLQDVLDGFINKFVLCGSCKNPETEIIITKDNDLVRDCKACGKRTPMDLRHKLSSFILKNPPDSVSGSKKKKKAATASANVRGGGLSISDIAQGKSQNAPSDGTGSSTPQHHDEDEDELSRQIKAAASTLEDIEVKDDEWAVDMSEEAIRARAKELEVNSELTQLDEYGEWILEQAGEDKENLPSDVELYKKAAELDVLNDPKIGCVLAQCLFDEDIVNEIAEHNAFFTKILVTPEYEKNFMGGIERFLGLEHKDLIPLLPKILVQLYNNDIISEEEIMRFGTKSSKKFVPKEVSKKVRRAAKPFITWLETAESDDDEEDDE

The target of test [1] is b/PRT1-His (S. cerevisiae) (UniProt P06103). Nature of the test: pull-down; Ni2+-chelation chromatography of yeast whole-cell extracts with His8-tagged b/PRT1 as bait (Ni2+-NTA-silica resin, buffer A, 2 h, 4°C); eluates analysed by Western blot.
Test [2] addresses GST-j/hcr1-CTD [136-265] (S. cerevisiae) (UniProt Q05775). The test can be described thus: pull-down; GST fusions from E. coli immobilized on glutathione-Sepharose beads, incubated with 10 μl of in vitro-synthesized 35S-labeled partner at 4°C for 2 h; washed 3 times with phosphate-buffered saline; SDS-PAGE, autoradiography; only the target purified.
The target of test [3] is GST-j/HCR1 (S. cerevisiae) (UniProt Q05775). The description is as above.
Test [4] addresses GST-j/hcr1-NTD [1-135] (S. cerevisiae) (UniProt Q05775). Described as above.

Results are given in words; binding and its absence hold for the method and conditions named. Binding seen in cells or lysates may run through a third protein. For some assays here: Binding calls can cover weak binding; strength is not graded here.

Turning to “j/HCR1 (wt, untagged, in yeast whole-cell extract) (from UniProt Q05775 1-265)”, the binding entry in test [1] is listed as “binds”.
Regarding eIF5 (from UniProt P38431 1-405), the binding entry in test [1] was “binds”.
“35S-labeled wt b/prt1-RRM [1-136] (from UniProt P06103) (domain or fragment)”: the values for the binding result in test [2], in test [3] and in test [4] were “no binding”, “binds” and “binds”, respectively.
